Test results reported in article PMC10960023.
No constants are given. Whether binding was seen depends on the method and setting. Binding seen in cells or lysates may run through a third protein. Some entries that bind do so weakly or less than the wild type.

Amino acid sequences for entries named in this document (tags omitted).
UniProt P07437: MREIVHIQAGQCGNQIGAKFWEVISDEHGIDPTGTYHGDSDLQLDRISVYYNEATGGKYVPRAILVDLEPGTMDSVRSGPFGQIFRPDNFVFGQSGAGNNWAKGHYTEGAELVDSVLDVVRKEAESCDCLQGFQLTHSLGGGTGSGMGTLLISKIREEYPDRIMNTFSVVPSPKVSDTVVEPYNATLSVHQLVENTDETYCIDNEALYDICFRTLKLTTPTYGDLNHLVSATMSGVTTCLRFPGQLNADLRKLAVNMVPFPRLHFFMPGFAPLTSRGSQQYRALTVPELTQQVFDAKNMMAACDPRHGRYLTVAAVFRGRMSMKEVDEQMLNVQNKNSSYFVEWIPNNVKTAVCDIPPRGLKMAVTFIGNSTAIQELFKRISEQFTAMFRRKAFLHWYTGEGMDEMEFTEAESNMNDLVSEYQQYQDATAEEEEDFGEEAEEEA

Biological target: TUBB (human) (UniProt P07437)
Assay: co-IP; HEK293 cells transfected with the indicated constructs, lysed 24 h later in 50 mM Tris-HCl pH 7.5, 200 mM NaCl, 0.5% Triton X-100, 1 mM DTT; lysates incubated with anti-FLAG M2 agarose for 2 h at 4 °C; immunoblotting

B1: HYLS1 (protein, UniProt Q96M11 1-299)
chain: MEELLPDGQIWANMDPEERMLAAATAFTHICAGQGEGDVRREAQSIQYDPYSKASVAPGKRPALPVQLQYPHVESNVPSETVSEASQRLRKPVMKRKVLRRKPDGEVLVTDESIISESESGTENDQDLWDLRQRLMNVQFQEDKESSFDVSQKFNLPHEYQGISQDQLICSLQREGMGSPAYEQDLIVASRPKSFILPKLDQLSRNRGKTDRVARYFEYKRDWDSIRLPGEDHRKELRWGVREQMLCRAEPQSKPQHIYVPNNYLVPTEKKRSALRWGVRCDLANGVIPRKLPFPLSPS
binding: binds
